# Experimental data from PubChem BioAssay AID1508600 (Functional Genomics Laboratory (NCATS/FGL), 2020).
# About 3,700 (7%) of roughly 53,000 sequences were called active.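 Rule for the calls: active = gene knockdowns whose robust z-score for IL-1 alpha signal is at least 2 or at most -2, so actives lie on both sides; inactive = the rest.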 This is one part of the list.
# Assay: Components of the Cytosolic LPS Sensing Pathway: Gene Identification via Genome-wide siRNA Screen;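 note: robust z of the log signal after scaling to non-targeting control siRNA wells of the plate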
# Settings: RAW264.7 macrophages, IL-1a HTRF, actives lie on both sides, screened at 100 nM (by protocol), cells primed 5 h with Pam3CSK4 first
# Method in brief: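 Cells (RAW264.7, 1×10^4 per well) were transfected with siRNA at 100 nM and cultured 48h at 37 degrees C. Pam3CSK4 was added for 5 hours; LipidA transfection followed for 24 hour. IL-1a was then measured by HTRF.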
row,Sequence,z-score
1,GCCUGUGUGUUGCUGUAAGTT against Krtap5-1,inactive: 0.181
2,GCUCUCAAUUGAGGAUAAATT against Mthfd1,inactive: -0.0879
3,GGAGAUCAUGAAGAUCACATT against Mapk12,inactive: -0.827
4,GCUGAGGUUGAACUUUAUUTT against Naa25,inactive: 1.77
5,GGAAUAGGGAGGUAACCAGTT against Olfr1394,inactive: 0.0525
6,GGCCAACUGUACAAACUCCTT against Tmem120a,inactive: -1.16
7,GGACUCAAGCAGAUGGUAUTT against 1700018B08Rik,inactive: -0.56
8,GGAGAAAGCUCGAAAAUGGTT against Prpf8,inactive: -1.61
9,GGUUUCCUGAAGUUUUCAATT against Gnaz,active: 3.08
10,GGACUGGGAAGAUGAUGAATT against Eola1,inactive: -1.51
11,CCUGAGAUGUUUCAACUGCTT against Plekha3,inactive: -0.853
12,GCUAAGAAACGGAAUUUGGTT against Adam7,inactive: 0.446
13,GCUCACCAAUGAAAUUAAUTT against Xpo7,inactive: -0.981
14,GAUCAAGGACCGGUACCUGTT against Lmo1,inactive: 1.34
15,GGCAUUGAAGGAAGUGAUCTT against Psmg3,active: -2.9
16,UGUUUGGGCCCAAAGGCUUTT against Crip1,inactive: -1.15
17,GGGAAGAAAUCAACGAUAATT against Gpa33,inactive: -0.0673
18,GGGAUGUGGAACGUAUGGUTT against Tmem53,inactive: 1.04
19,GGGUGUAGUCCUGAAAGUATT against Arpc5l,active: 2.45
20,GGAACAGGUAAAGAUCCCATT against Repin1,inactive: 0.609
21,GGUGAUGAAGUGCGUCCUGTT against Chga,inactive: -0.396
22,GGACUUAUCAAGCUGGUUUTT against Rps25,inactive: -1.48

row,Sequence,z-score
1,GGCUUCAAGGGAAAAGCUGTT against Snx32,inactive: -0.95
2,GGAAAAUCAACUUCACAAATT against Shox2,inactive: -0.796
3,GGAGAAAUCCCUUCACGGUTT against Mas1,inactive: 0.449
4,GGUCAUUUUGCAUGAUGUCTT against Trpv3,inactive: -0.779
5,GGAGAAACAGCCUAAGAAGTT against Pacsin1,inactive: -0.424
6,GGCAGACUUCUACAAGGAATT against Arhgef4,inactive: 0.518
7,GGUUGACACAGAUGAAGAGTT against Rdh9,inactive: -0.171
8,GCAGCUUCGAAACCUACCATT against Tbc1d10b,inactive: 1.33
9,GGCUGAUUUGCAUAUCGGGTT against Ethe1,inactive: -0.799
10,GGAACUCAAACUUUUCGUATT against Map1b,inactive: 0.509
11,GUCUCUCUUUUAACAUGCUTT against Ceacam13,inactive: -0.176
12,GCAUGAAUUUUGCACGGACTT against Rad18,inactive: 1.04
13,GGGCUCUUUUUCUAGGAAATT against Fam155a,inactive: -0.247
14,GGCUGACUACAAUUUAAUCTT against Slitrk4,inactive: 0.472
15,GGACACCUAUCUUGUCCGGTT against Cyb5rl,inactive: 0.935
16,GGAAUUUUGCCAGCAAAUGTT against Edaradd,inactive: 0.624
17,CCCUCUCUACGUGAUUCAATT against Brd2,inactive: 0.189
18,GGAUGACUAGACAGGAAAATT against Ptma,inactive: 0.397
19,CCUGGAGUGAAGUACAAAUTT against Zfp458,inactive: -0.642
20,GCGGGAAGCCUUUAUCUCUTT against Aanat,inactive: 0.199
21,GGCUUCGACUGUUGAGAUUTT against Septin2,inactive: -0.786
22,GCUCAGUCAUGUCUUGUGCTT against Tagap,inactive: -0.624

row,Sequence,z-score
1,GGGCUGUUUUUACAAAACATT against Fam155a,inactive: -0.746
2,GGACAAUUUAUUCCAGUUUTT against Dlx1,inactive: -1.44
3,GGUACACUAUGAGGUCUGCTT against Traf2,active: 2.07
4,GGCCUGUCUGAGCUUAACATT against Cmtm3,inactive: 0.861
5,GGUGAUUCCCGAUUAUGUGTT against Ercc1,inactive: -1.34
6,GCGAGAUGCGUUCAUGGACTT against Srcin1,inactive: 0.176
7,CGAACUUGAGAAUCUUAGATT against Ano10,inactive: 0.305
8,GGACUCAGAAGUGAACAUATT against Spata7,inactive: -0.916
9,GGCUGUCUCAGAGAAGAAATT against Phxr1,inactive: -1.33
10,CGGAUGUUCCAUUUGCUGATT against Sprr2g,inactive: -1.15
11,GGACCAGCUGAAGAUGGGATT against Pced1b,inactive: -1.1
12,GGAACACAUUGGGUAUGCCTT against Sac3d1,inactive: -0.575
13,CCUUAAGCUAUCAAAUAAGTT against Zfp131,inactive: 1.94
14,CCUGAUGUAGAAGCAUACUTT against Tmem9b,inactive: 1.25
15,CGAUUGGAAUGACCGAGAGTT against Srrt,inactive: -1.36
16,GGCAGGAACUACCUCUUCATT against Sema5b,inactive: -0.531
17,GGACUUAAGUAAGAUGAAGTT against Med15,inactive: -1.05
18,GGGCAUGGAUUUUAUCCACTT against Ccdc93,inactive: 1.93
19,GGGAUCAGAACAAGUAUAATT against Klc1,inactive: 0.257
20,GGUGAAUAUUUCAAUGGCCTT against Klhdc4,inactive: 1.1
21,CGGAUGUUCGUGUUAAAAATT against Plek,inactive: 0.92
22,CCCUGAUCAUGUUUUGUCCTT against Mrps24,inactive: -0.321

# Four entries picked at random from the list so far:
row,Sequence,z-score
21,CGGAUGUUCGUGUUAAAAATT against Plek,inactive: 0.92
20,GGUGAAUAUUUCAAUGGCCTT against Klhdc4,inactive: 1.1
14,CCUGAUGUAGAAGCAUACUTT against Tmem9b,inactive: 1.25
4,GGCCUGUCUGAGCUUAACATT against Cmtm3,inactive: 0.861

# Next records.

row,Sequence,z-score
1,GGAAAAAUAGGGUGUUUUGTT against Tdg,inactive: 1.96
2,GCUAUGUCAUCGAGGUCCUTT against Smco1,inactive: 0.846
3,GCAUCCUGAUCACUUAACATT against Cep170,inactive: -0.732
4,CGUGAGCAGUCAAACCCAGTT against Il27ra,inactive: -0.0611
5,CCCACAUAAAUAAGUUGGUTT against Olfr996,inactive: -1.02
6,GGCGAGUUCUACAGUUACUTT against Cherp,inactive: 0.195
7,CGAAUCACUGCUGUUCCAUTT against 5830411N06Rik,inactive: 0.625
8,GGUCUCCUGAUGGAGAAGATT against Muc5b,inactive: -0.261
9,GGAAGAUGACCUCAUCCACTT against Crlf2,inactive: 0.44
10,GAGUUACUGGAAUUAAAGGTT against Nrg4,inactive: 1.93
11,GCUAACUAACGAGAUGAUUTT against T,inactive: -1.21
12,GGAAAGAUGAGAUCCUAGGTT against Fermt3,inactive: 1.15
13,GCAGAUCCAAGAACAUAAGTT against Acrbp,inactive: -0.239
14,GGACUUGGUGCACUGAAGUTT against Lrig3,inactive: 0.987
15,GGCUAUUUUUCAGGUUCCUTT against Olfr747,inactive: 1.24
16,CUAAAUGCCUCCUACCUUUTT against Krtap4-16,inactive: 1.89
17,CCAAUAAGGUCGUUUCUAUTT against Olfr589,inactive: -1.58
18,GGUGGGAUCGAGGAACAAATT against Ext2,inactive: -1.33
19,GGGUUGGAUAAGGAGAAAATT against Polk,inactive: -0.632
20,GCAGUUGAGACAAUAUGUCTT against Trim31,inactive: -1.8
21,GGAAGAAAGAUCUAUGAACTT against Dph5,inactive: -0.648
22,GGUGUAUUCAGAGAAGAAGTT against Tmem184a,inactive: 0.598

row,Sequence,z-score
1,GCAGGUCAAUGGACUUAUGTT against Tal1,inactive: 0.893
2,CCAACUCUGUUACAUUAUGTT against Cenpi,inactive: 1.06
3,GCUAAGAACGGAUUUCAAGTT against Cnih3,inactive: 0.491
4,GGUCCACAGAUUCUUCUAATT against Zfa-ps,inactive: -0.761
5,GCAUAUUAUACCAAGGCCUTT against Tex11,inactive: -0.933
6,GGUCUCUCUGGAAAUAUAATT against Gria2,inactive: -0.947
7,CCUAACAUAGUAUAGCCUUTT against Zfp868,inactive: -0.0695
8,GGAGCUCAUAUACACCUGCTT against Tdp1,inactive: 0.524
9,CGGCUUGCUACUUUGGAACTT against Gda,active: 2.55
10,CACGGUACAGUACGAUUGATT against Rcan2,inactive: 0.143
11,CCAUUCAUACCAUACCUGUTT against Tmem50a,inactive: -0.521
12,GGUGAUCAAACUUUACUCATT against Gfra2,inactive: -1.03
13,GGACCAUAUUCCAGACCAGTT against Endov,inactive: 0.247
14,GGAUGACACCAAGUUCAAATT against Kcnb1,inactive: 0.765
15,GGAAGAAUUAAACGAUUACTT against Crnkl1,inactive: -1.87
16,GCCGCUCUACAUAGAAGUUTT against Uxs1,inactive: 1.89
17,GGUCUUUGAGUUAAACCAUTT against Cdc7,inactive: -0.0476
18,GCCGUGAUGUUGUCACUGATT against Ppp2r5d,inactive: 0.642
19,CCAUCGUUGUUUCUUACACTT against Olfr922,inactive: 0.903
